Binding data for one substance are collected here from patent US20050043234A1.

Chains of the proteins cited; added tags and fusions are not shown. Lines headed by an entry give the natural chain unless they say otherwise; changes in a name come on top.
UniProt O76093: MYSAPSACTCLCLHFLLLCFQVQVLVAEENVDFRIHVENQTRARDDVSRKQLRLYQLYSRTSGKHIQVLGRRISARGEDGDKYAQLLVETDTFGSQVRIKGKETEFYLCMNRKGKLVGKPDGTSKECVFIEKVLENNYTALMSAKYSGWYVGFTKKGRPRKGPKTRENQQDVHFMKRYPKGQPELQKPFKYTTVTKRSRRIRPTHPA
UniProt P22607: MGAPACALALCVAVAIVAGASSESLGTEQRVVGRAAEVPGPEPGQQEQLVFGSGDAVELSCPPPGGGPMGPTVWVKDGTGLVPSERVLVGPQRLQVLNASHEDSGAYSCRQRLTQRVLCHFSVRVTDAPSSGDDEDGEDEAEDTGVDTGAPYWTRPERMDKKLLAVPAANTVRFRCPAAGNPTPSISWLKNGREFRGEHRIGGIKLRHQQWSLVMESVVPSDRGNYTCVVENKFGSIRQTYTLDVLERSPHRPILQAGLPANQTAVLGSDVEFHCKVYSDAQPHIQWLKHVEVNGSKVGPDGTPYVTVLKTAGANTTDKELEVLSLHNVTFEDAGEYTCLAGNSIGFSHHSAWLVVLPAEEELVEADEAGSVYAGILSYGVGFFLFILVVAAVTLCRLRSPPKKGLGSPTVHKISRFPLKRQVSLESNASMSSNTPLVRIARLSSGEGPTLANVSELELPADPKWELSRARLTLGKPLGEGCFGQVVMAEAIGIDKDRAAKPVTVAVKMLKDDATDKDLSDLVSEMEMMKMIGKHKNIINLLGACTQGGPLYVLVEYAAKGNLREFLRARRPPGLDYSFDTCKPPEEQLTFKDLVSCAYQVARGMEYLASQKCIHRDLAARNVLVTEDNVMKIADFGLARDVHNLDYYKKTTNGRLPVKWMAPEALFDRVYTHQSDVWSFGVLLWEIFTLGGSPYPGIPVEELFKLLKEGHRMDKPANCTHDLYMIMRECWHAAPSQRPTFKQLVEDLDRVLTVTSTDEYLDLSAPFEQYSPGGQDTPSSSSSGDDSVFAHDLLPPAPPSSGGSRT

In the test the target is zFGF5 (human) (UniProt O76093). As to the kind of experiment: soluble receptor-Fc competition, proliferation of BAF3 cells expressing FGFR3α-IIIc.

These are yes or no findings as the source states them, for the method shown. Some results given as binding are weak or reduced against the parent protein; the word gives no strength.

For the substance “FGFR3α-IIIc/Fc (from UniProt P22607 23-375) (Fc fusion)”, the binding result was “binds”.
